Reference: PubChem BioAssay AID1159578 (Peter MacCallum Cancer Centre, 2015)
Shown is a random part of about 18,000 reagents tested. Of all reagents, about 1,030 (5.7%) were called active. 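Inactive calls also include pools with fewer than 3300 nuclei, whose migration was not assessed.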 Raw values vary from plate to plate and are shown uncorrected. The numbers tell different reagents against one gene apart. Reagent sequences are not shown.

Aim: 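Genome-wide hunt for genes controlling movement of lymphatic endothelial cells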 (primary screen)
Cell system: human lymphatic endothelial cells
Reagent: siRNA pool against human genes, 40 nM
Timing: 48 h after transfection
Measurement: 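Cells stained with dye and imaged after a scratch; covered wound area and nuclei counted, duplicates averaged, migration set against mock wells and turned into a robust z-score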
Direction: migration robust z-score: higher = faster migration into the scratch; migration relative to mock: higher = more scratch area covered than mock; nuclei per well: higher = more cells in the well
Rule for the call: 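Pools averaging fewer than 3300 nuclei are never called; remaining pools count as changed when migration robust z lies outside -2 to 2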
Meaning of the calls: active = migration changed; inactive = no migration change, or too few cells

gene	reagent no.	migration robust z-score	migration class with cell-count check	migration relative to mock	nuclei per well, duplicate mean	call
MUC20	1	0.23	migration z between -2 and 2; enough cells	0.94	6758	inactive
KDM6A	1	0.62	migration z between -2 and 2; enough cells	1.04	7508	inactive
NUDT13	1	-0.75	migration z between -2 and 2; enough cells	0.66	4682	inactive
MFSD6	1	0.1	migration z between -2 and 2; enough cells	0.91	5910	inactive
BTG1	1	0.21	migration z between -2 and 2; enough cells	0.84	5702	inactive
GSTT2	1	0.64	migration z between -2 and 2; enough cells	0.93	5963	inactive
DLGAP5	1	-0.08	migration z between -2 and 2; enough cells	0.79	5352	inactive
NIPSNAP2	1	1.69	migration z between -2 and 2; enough cells	1.32	5752	inactive
MYO18A	1	-1.88	migration z between -2 and 2; enough cells	0.4	5494	inactive
MYO18A	2	0.41	migration z between -2 and 2; enough cells	0.99	5700	inactive
DENND3	1	-0.66	migration z between -2 and 2; enough cells	0.72	4430	inactive
CREB1	1	-0.57	under 3300 nuclei; migration not judged	0.7	3070	inactive
TPSG1	1	0.42	migration z between -2 and 2; enough cells	0.88	5636	inactive
ZNF362	1	1.42	migration z between -2 and 2; enough cells	1.25	6050	inactive
SSR2	1	0.28	migration z between -2 and 2; enough cells	0.96	4506	inactive
FCGR1BP	1	-1.49	migration z between -2 and 2; enough cells	0.5	4500	inactive
SPOP	1	0.95	migration z between -2 and 2; enough cells	1.13	6028	inactive
C1S	1	-0.13	migration z between -2 and 2; enough cells	0.78	5688	inactive
MAML1	1	-0.05	migration z between -2 and 2; enough cells	0.8	5856	inactive
APOL3	1	0.65	migration z between -2 and 2; enough cells	0.93	4914	inactive
GPR45	1	-0.39	migration z between -2 and 2; enough cells	0.73	5678	inactive
PRR23E	1	-0.87	migration z between -2 and 2; enough cells	0.66	6747	inactive
MAOA	1	-2.15	migration z below -2; enough cells	0.39	5282	active
PFDN4	1	0.26	migration z between -2 and 2; enough cells	0.95	5800	inactive
MICA	1	-0.67	migration z between -2 and 2; enough cells	0.71	4996	inactive

Called active, of those listed so far:
gene	reagent no.	migration robust z-score	migration class with cell-count check	migration relative to mock	nuclei per well, duplicate mean	call
MAOA	1	-2.15	migration z below -2; enough cells	0.39	5282	active

Continued.
gene	reagent no.	migration robust z-score	migration class with cell-count check	migration relative to mock	nuclei per well, duplicate mean	call
PPP1CA	1	-2.44	migration z below -2; enough cells	0.34	4046	active
TFAP2A	1	-0.13	migration z between -2 and 2; enough cells	0.78	6778	inactive
SKA2	1	1.47	migration z between -2 and 2; enough cells	1.27	6154	inactive
RAB22A	1	-0.86	migration z between -2 and 2; enough cells	0.64	5708	inactive
NFIL3	1	0.73	migration z between -2 and 2; enough cells	0.94	5608	inactive
NOX1	1	0.94	migration z between -2 and 2; enough cells	0.98	5936	inactive
LAMA4	1	-3.66	migration z below -2; enough cells	0.1	3759	active
CALCOCO2	1	0.36	migration z between -2 and 2; enough cells	0.88	5414	inactive
BCKDK	1	0.62	migration z between -2 and 2; enough cells	0.92	4102	inactive
MMRN2	1	-0.84	migration z between -2 and 2; enough cells	0.67	5576	inactive
OGFOD2	1	0.18	migration z between -2 and 2; enough cells	0.92	5589	inactive
UBAP2L	1	-1.18	migration z between -2 and 2; enough cells	0.58	5272	inactive
DCHS1	1	1.56	migration z between -2 and 2; enough cells	1.28	3952	inactive
GSG1	1	-0.46	migration z between -2 and 2; enough cells	0.76	4765	inactive
JUNB	1	-0.6	migration z between -2 and 2; enough cells	0.69	6380	inactive
CD52	1	-1.07	migration z between -2 and 2; enough cells	0.61	5922	inactive
TUT4	1	0.88	under 3300 nuclei; migration not judged	0.98	2988	inactive
TSSK1B	1	0.16	migration z between -2 and 2; enough cells	0.84	4558	inactive
ODF2	1	-1.09	migration z between -2 and 2; enough cells	0.6	5578	inactive
SRM	1	-2.05	migration z below -2; enough cells	0.41	5080	active
RFPL4B	1	0.83	migration z between -2 and 2; enough cells	0.97	5194	inactive
AKR7A2	1	-0.16	migration z between -2 and 2; enough cells	0.78	6430	inactive
ERVW-1	1	0.49	migration z between -2 and 2; enough cells	1.02	5615	inactive
DNAJB9	1	-0.14	migration z between -2 and 2; enough cells	0.85	5656	inactive
SLC20A2	1	-0.8	migration z between -2 and 2; enough cells	0.65	5982	inactive
TMEM74	1	-2.14	migration z below -2; enough cells	0.32	3397	active
FSTL4	1	-0.64	migration z between -2 and 2; enough cells	0.72	5777	inactive
SPAST	1	0.94	migration z between -2 and 2; enough cells	0.98	5429	inactive
MEGF10	1	-0.88	migration z between -2 and 2; enough cells	0.66	5900	inactive
NELL2	1	-0.18	migration z between -2 and 2; enough cells	0.84	5915	inactive
VCX2	1	0.91	migration z between -2 and 2; enough cells	1.12	6286	inactive
CTDNEP1	1	-0.5	migration z between -2 and 2; enough cells	0.76	5956	inactive
